Values from PubChem BioAssay AID1259308 (NCATS, 2017).

Assay: 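Knock-downs that increase output of a recombinant reporter protein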 (primary screen)
System: human HEK293 embryonic kidney cells stably expressing firefly luciferase (HEK-CMV-Luc2-Hygro)
Knock-down reagent: single siRNA against human genes, 0.8 pmol siRNA per well
Time to read-out: 72 h
Read-out: 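Reporter luminescence and viable-cell signal on separate replicate plates, given as percent of non-targeting control and median/MAD z-scores, plus per-cell luciferase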
Direction: total luciferase, z-score: higher = more reporter protein produced
Hit rule: 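Active when the median/MAD z-score for overall luciferase is greater than 3; a gene was taken forward for validation with new siRNAs if at least two of its three siRNAs passed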
Calls: active = raised luciferase; inactive = no rise
This is a random part of about 59,000 deposited reagents. About 1,510 of all reagents (2.6%) count as active. 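Calls use total luciferase alone and ignore viability, so some active siRNAs may act by altering cell number.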 Reagents against one gene are numbered here. Further read-outs or replicates are left out here.

total luciferase, z-score, by target and reagent
ZNF672: #1 -0.151 inactive; #2 -0.945 inactive; #3 0.665 inactive
HIC1: #1 -2.05 inactive; #2 0.844 inactive; #3 -0.279 inactive
FSD1: #1 0.983 inactive; #2 1.75 inactive; #3 0.77 inactive
FMOD: #1 0.247 inactive; #2 1.21 inactive; #3 1.46 inactive
POU2F3: #1 -0.59 inactive; #2 -0.113 inactive; #3 -1.55 inactive
ZCCHC4: #1 -0.584 inactive; #2 -0.0221 inactive; #3 -1.13 inactive
HSPA12A: #1 -0.175 inactive; #2 -1.48 inactive; #3 -1.34 inactive
LGALS4: #1 -1.47 inactive; #2 -1.14 inactive; #3 -1.14 inactive
TUBA1B: #1 -0.749 inactive; #2 0.849 inactive; #3 0.762 inactive
ITIH2: #1 -0.817 inactive; #2 0.776 inactive; #3 -1.38 inactive
STYXL2: #1 3.49 active; #2 -0.822 inactive; #3 -0.497 inactive
SIDT1: #1 -0.356 inactive; #2 0.606 inactive; #3 -0.241 inactive
LRG1: #1 4.68 active; #2 -0.876 inactive; #3 -0.604 inactive
CCM2L: #1 -0.989 inactive; #2 1.58 inactive; #3 0.698 inactive
YJU2: #1 0.447 inactive; #2 1.24 inactive; #3 0.494 inactive
KCNS3: #1 -0.341 inactive; #2 -0.982 inactive; #3 0.126 inactive
SIPA1L1: #1 -0.815 inactive; #2 0.655 inactive; #3 0.168 inactive
SULF1: #1 -1.37 inactive; #2 -0.105 inactive; #3 -0.785 inactive
TXNDC2: #1 0.0962 inactive; #2 -0.123 inactive; #3 1.4 inactive

Not a retest: entries from further up.
total luciferase, z-score, by target and reagent
STYXL2: #3 -0.497 inactive
SIDT1: #1 -0.356 inactive; #2 0.606 inactive
